Where a name gives a salt, the structure may show the parent alone. The list shows a part of the results. Repeats in this data set agree poorly, so a single value says little.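 Human fetal ventral-midbrain neural progenitor line ReNCell VM, differentiated without mitogens. Images stained for doublecortin (early neurons) or tyrosine hydroxylase (dopaminergic neurons) were scored by blinded raters against untreated wells (0 = no change). Repeats and both raters were averaged, and compounds averaging 2 or higher were picked as hits for retesting.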

The subject of one test is ReNCell VM. Briefly: neuronal differentiation score (DCX+ cell fraction vs untreated, manual image score) (score (-3 to 3)); higher = more neuronal differentiation. The conditions noted are these: library: LOPAC; 2 uM; 2 weeks.
On to `N[C@@H](CCCC(=O)O)C(=O)O` [L-2-aminoadipic acid], for which the neuronal differentiation score is inactive: 0.
Still for that read-out and setting: then `CC(O)C(O)[C@H]1CNc2nc(N)[nH]c(=O)c2N1` (stereo partly drawn) [(6R)-5,6,7,8-Tetrahydro-L-biopterin hydrochloride], with inactive: 0; and `N#Cc1c(-c2ccccc2)no[n+]1[O-]` [4-Phenyl-3-furoxancarbonitrile], with inactive: 0; and `CC(C)c1ccc2c(c1)c(SC(C)(C)C)c(CC(C)(C)C(=O)O)n2Cc1ccc(Cl)cc1`, with inactive: 0.
On the same count and under the same terms, then `N#Cc1cc2nc(O)c(O)nc2cc1[N+](=O)[O-]` [CNQX disodium], with inactive: 0; and `O=c1[nH]c2ccccc2c2ccccc12` [6(5H)-Phenanthridinone], with inactive: 0.
For `CSc1ccc(C(=O)c2[nH]c(=O)[nH]c2C)cc1` [Enoximone], the neuronal differentiation score is inactive: 0.

The test is the same for the next values; noted with them: library: Natural; 2 uM; 2 weeks.
As to `CC(Nc1ccc2oc(=O)ccc2c1)=C1C(=O)CC2C1C2(C)C` (stereo not drawn), the neuronal differentiation score was inactive: 0.
Still for that read-out and setting: then `O=C(O)CC1NC(=O)C(Cc2ccccc2)NC1=O` (stereo not drawn) [5-benzyl-3,6-dioxo-2-piperazineacetic acid], with inactive: 0.
On the same count and under the same terms, as for `O=C1Nc2ccccc2C(=O)N2CCCC12` (stereo not drawn), the figure is inactive: -1.

Staying with this test, now noted: library: Phytochemical; 2 uM; 2 weeks.
With `c1ccc2c(c1)CN1CCCC1=N2` [Desoxypeganine Hydrochloride], the neuronal differentiation score is inactive: 0.
With `O=C1Nc2ccccc2/C1=C1/Nc2ccccc2C1=O` [Indirubin], the neuronal differentiation score is inactive: 1.
The same measure, in the same setting: as for `C[C@H]1[C@H]2CC[C@H]3[C@@H]4CC=C5C[C@@H](N(C)C)CC[C@]5(C)[C@H]4CC[C@]23CN1C` [Conessine], the figure is inactive: 1.
Same read-out and setting: then `C/C=C1\[C@H]2C=C(C)C[C@]1(N)c1ccc(=O)[nH]c1C2` [Huperzine A], with inactive: 0.

Staying with this test, now noted: library: Prestwick; 2 uM; 2 weeks.
With `CCSc1ccc2c(c1)N(CCCN1CCN(C)CC1)c1ccccc1S2` [Thiethylperazine dimalate], the neuronal differentiation score was inactive: 0.
With `O=C(NCCN1CCOCC1)c1ccc(Cl)cc1` [Moclobemide], the neuronal differentiation score is inactive: 0.
Still for that read-out and setting: then `C#Cc1cccc(Nc2ncnc3cc(OCCOC)c(OCCOC)cc23)c1` [Erlotinib], with inactive: 0.
Still for that read-out and setting: as for `O=C1Nc2ccc(Cl)cc2[C@@](C#CC2CC2)(C(F)(F)F)O1` [Efavirenz], the figure is inactive: 0.

Still in this test, the particulars now being: library: Spectrum; 2 uM; 2 weeks.
For the compound `Cc1ncc(C[n+]2csc(CCO)c2C)c(N)n1`, the neuronal differentiation score was active: 3.
On the same count and under the same terms, then `O=S(=O)(O)CCCS(=O)(=O)O`, with inactive: 0; and `Nc1nc(=O)c2[nH]c(=O)cnc2[nH]1`, with inactive: 0.
Same read-out and setting: as for `CCCc1cc(=O)[nH]c(=S)[nH]1`, the figure is inactive: 0.
The same measure, in the same setting: as for `N=C(N)NC(=O)Cc1c(Cl)cccc1Cl`, the figure is inactive: 0.
As for `CC(C)[C@H](N)C(=O)OCC(CO)OCn1cnc2c(=O)nc(N)[nH]c21` (stereo partly drawn), the neuronal differentiation score is inactive: 1.
The same measure, in the same setting: then `C=CCc1ccc(O)c(OC)c1`, with inactive: 0; and `CCN[C@@H]1C[C@H](N)[C@@H](O[C@H]2OC(CN)=CC[C@H]2N)[C@H](O)[C@H]1O[C@H]1OC[C@](C)(O)[C@H](NC)[C@H]1O`, with inactive: 0; and `C#C[C@]1(O)CC[C@H]2[C@@H]3CCC4=Cc5oncc5C[C@]4(C)[C@H]3CC[C@@]21C`, with inactive: 0.
Turning to `CSc1ccc2c(c1)N(CCC1CCCCN1C)c1ccccc1S2` (stereo not drawn), the neuronal differentiation score is inactive: 0.
On to `COc1cc(OC)c2c(OC)c(-c3ccc4c(c3)OCO4)c(=O)oc2c1`, for which the neuronal differentiation score was inactive: 0.
Still for that read-out and setting: then `Cc1c(Nc2ncccc2C(=O)O)cccc1C(F)(F)F`, with active: 3; and `NC[C@H]1O[C@H](O[C@H]2[C@H](O[C@@H]3O[C@H](CO)[C@@H](O)[C@H]3O)[C@@H](O)[C@H](N)C[C@@H]2N)[C@H](N)[C@@H](O)[C@@H]1O`, with inactive: 0.
On the same count and under the same terms, then `O=C(O)CCCCCCCC(=O)O`, with inactive: -1.
Still for that read-out and setting: as for `COc1ccc([C@@H]2CC(=O)c3c(O)cc(O[C@@H]4O[C@H](CO[C@@H]5O[C@@H](C)[C@H](O)[C@@H](O)[C@H]5O)[C@@H](O)[C@H](O)[C@H]4O)cc3O2)cc1O`, the figure is inactive: 0.

Values taken from the supplement of paper PMC4635364.
